The source of these data is article PMC10628199, “Structural and functional investigations of syn-copalyl diphosphate synthase from Oryza sativa” (Communications Chemistry, 2023).

The target in assay [1] is OsCyc1 Q291A (Oryza sativa) (UniProt Q0JF02). Briefly: SEC-MALS; static light scattering (DAWN HELEOS II) on a Nanofilm SEC-150 column; protein 1.0 mg/mL in buffer A (20 mM Tris-HCl pH 8.0, 200 mM NaCl, 2 mM DTT); both purified. (In general: Size exclusion chromatography separates by hydrodynamic size, large species first.)
For assay [2], the target named is full-length OsCyc1 (syn-copalyl diphosphate synthase from Oryza sativa) (Oryza sativa) (UniProt Q0JF02). The assay can be described thus: SEC; Superdex 200 HR 10/300 gel filtration; peak near 11 mL for the wild-type proteins; both purified.

These are yes or no findings as the source states them, for the method shown. Some binding calls cover weakened binding; strength is not graded here.

B1: OsCyc1 Q291A (enzyme, UniProt Q0JF02 48-767)
chain: LISKSPPYPASEETREWEADGQHEHTDELRETTTTMIDGIRTALRSIGEGEISISAYDTSLVALLKRLDGGDGPQFPSTIDWIVQNQLPDGSWGDASFFMMGDRIMSTLACVVALKSWNIHTDKCERGLLFIQENMWRLAHEEEDWMLVGFEIALPSLLDMAKDLDLDIPYDEPALKAIYAERERKLAKIPRDVLHSMPTTLLHSLEGMVDLDWEKLLKLRCLDGSFHCSPASTATAFQQTGDAKCFEYLDGIVKKFNGGVPCIYPLDVYERLWAVDRLTRLGISRHFTSEIEDCLDYIFRNWTPDGLAHTKNCPVKDIDDTAMGFRLLRLYGYQVDPCVLKKFEKDGKFFCLHGESNPSSVTPMYNTYRASQLKFPGDDGVLGRAEVFCRSFLQDRRGSNRMKDKWAIAKDIPGEVEYAMDYPWKASLPRIETRLYLDQYGGSGDVWIGKVLHRMTLFCNDLYLKAAKADFSNFQKECRVELNGLRRWYLRSNLEKFGGTDPQTTLMTSYFLASANIFEANRAAERLGWARVALLADAVSSHFRRIGGPKNSTSNLEELISLVPFDDAYSGSLREAWKQWLMAWTAKESSQESIEGDTAILLVRAIEIFGGRHVLTGQRPDLWEYSQLEQLTSSICCKLSRRVLAQENGESTEKVEEIDQQVDLEMQELTRRVLQGCSAINRLTRETFLHVVKSFCYVAYCSPETIDSHIDKVIFQDVI
Consider B1, for which the binding result in assay [1] is given as “binds”.

B2: OsCyc1, wild type, as used for cryo-EM (enzyme, Oryza sativa)
chain: LISKSPPYPASEETREWEADGQHEHTDELRETTTTMIDGIRTALRSIGEGEISISAYDTSLVALLKRLDGGDGPQFPSTIDWIVQNQLPDGSWGDASFFMMGDRIMSTLACVVALKSWNIHTDKCERGLLFIQENMWRLAHEEEDWMLVGFEIALPSLLDMAKDLDLDIPYDEPALKAIYAERERKLAKIPRDVLHSMPTTLLHSLEGMVDLDWEKLLKLRCLDGSFHCSPASTATAFQQTGDQKCFEYLDGIVKKFNGGVPCIYPLDVYERLWAVDRLTRLGISRHFTSEIEDCLDYIFRNWTPDGLAHTKNCPVKDIDDTAMGFRLLRLYGYQVDPCVLKKFEKDGKFFCLHGESNPSSVTPMYNTYRASQLKFPGDDGVLGRAEVFCRSFLQDRRGSNRMKDKWAIAKDIPGEVEYAMDYPWKASLPRIETRLYLDQYGGSGDVWIGKVLHRMTLFCNDLYLKAAKADFSNFQKECRVELNGLRRWYLRSNLEKFGGTDPQTTLMTSYFLASANIFEANRAAERLGWARVALLADAVSSHFRRIGGPKNSTSNLEELISLVPFDDAYSGSLREAWKQWLMAWTAKESSQESIEGDTAILLVRAIEIFGGRHVLTGQRPDLWEYSQLEQLTSSICCKLSRRVLAQENGESTEKVEEIDQQVDLEMQELTRRVLQGCSAINRLTRETFLHVVKSFCYVAYCSPETIDSHIDKVIFQDVI
notes: syn-copalyl diphosphate synthase OsCyc1 (OsCPS4), Oryza sativa, wild type; the cryo-EM methods say only 'OsCyc1'); the deposited entries tell the construct; Probably the same protein as m1 or m2; also called WT OsCyc1; source: E. coli BL21(DE3), purified; in buffer B
Regarding B2, the binding entry in assay [2] is listed as “binds”.
